According to PubChem BioAssay AID540256 (National Center for Advancing Translational Sciences (NCATS), 2011):
Screen size: about 300,000 compounds; about 3,700 (1.2%) were called active. Inconclusive means that the source gave no clear call. Such entries were picked first, then a sample of the others. The call rests on the fitted dose curve; tested in HEK293 cells. A potency beside an inconclusive call is a rough fit, not a confirmed value.

Experiment: qHTS for Inhibitors of binding or entry into cells for Lassa Virus; further: nearly all actives have a fitted effect of over 50% in size
Details: Lassa virus pseudotype entry inhibition, cell reporter; activity change, negative = inhibition: at 37.9 µM (top of the series) unless noted
On the % scale 0 is the no-effect control and ±100 the full control effect; potency means the concentration at half of the fitted maximal effect.

SMILES | Potency | activity change, negative = inhibition
O=C(NCCCN1CCCC1=O)c1ccc(S(=O)(=O)Nc2cccc(C(F)(F)F)c2)cc1 | inconclusive: 15.8 µM [inhibitor, single point] | –
CCOP(=S)(OCC)N1CCOCCOCCN(P(=S)(OCC)OCC)CCOCCOCC1 | inconclusive: 8.91 µM [inhibitor, partial curve, poor fit] | –
CCCC(=O)N1CCN(c2ccc(NC(=O)c3cc4ccccc4o3)cc2Cl)CC1 | active: 15.8 µM | –
c1ccc2c(c1)CCN(c1nc3cc4c(cc3s1)OCCO4)C2 | active: 4.61 µM | –
COc1ccc(Cn2nnnc2C(c2ccccc2Cl)N2CCC(C(N)=O)CC2)cc1 (stereo not drawn) | inconclusive: 0.651 µM [inhibitor, full curve, poor fit] | –
O=C(CN(c1ccc(F)cc1)S(=O)(=O)c1ccccc1)N1CCOCC1 | – | inactive: 7.68%
CCCOc1ccc(CSc2nc3ccccc3[nH]2)cc1 | – | inactive: 24% [at 14.3 µM]
CCN(Cc1ccncc1)C(=O)CCc1nnc(CCc2ccc(OC)cc2)o1 | – | inactive: -0.396% [at 46.1 µM]
C=C[C@@H]1C[C@H]2C=C[C@@H]([C@@H](C)C(=O)OC)OP(=O)(O1)O2 | inconclusive: 35.3 µM [inhibitor, single point] | –
CN(C)C(CNC(=O)CCc1nc2cc(Cl)ccc2n(Cc2ccccc2)c1=O)c1ccccc1 (stereo not drawn) | inconclusive: 0.891 µM [inhibitor, single point] | –
Cc1cc(CNC(=O)COc2ccccc2)c2ccccc2n1 | – | inconclusive: 30.9% [activator]
COC(=O)Cn1cc(C(=O)c2ccccc2F)c2ccccc21 | inconclusive: 1 µM [inhibitor, partial curve, poor fit] | –
NC(=O)C1=CC2C3C=CC2(O)C(=O)OC3O1 (stereo not drawn) | active: 7.08 µM | –
O=C(CCn1cccn1)N1CCCC(N2CCN(c3cccc(C(F)(F)F)c3)CC2)C1 (stereo not drawn) | inconclusive: 15.8 µM [inhibitor, single point] | –
O=C(Cn1c(=O)nc(-c2ccccc2)c2ccccc21)NCc1ccccc1Cl | inconclusive: 1.26 µM [inhibitor, full curve] | –
CCS(=O)(=O)c1ncc(N(Cc2ccco2)Cc2ccccc2F)c(C(=O)Nc2cccc(Cl)c2)n1 | inconclusive: 2 µM [activator, single point] | –
COC(=O)n1ccc(C(=O)Nc2ccccc2F)n1 | – | inactive: 7.13%
COc1ccccc1/C=C/C=N/n1c(-c2cc(C)[nH]n2)n[nH]c1=S | inconclusive: 8.91 µM [inhibitor, partial curve, poor fit] | –
CC(=O)c1ccc(NC(=O)CSc2nc(=O)n(Cc3ccncc3)c3c2CCC3)cc1 | – | inactive: 2.86% [at 46.1 µM]
Cn1c(O)c(N=NC(=O)c2cccc(S(=O)(=O)N3CCCCC3)c2)c2ccccc21 | inconclusive: 29.1 µM [inhibitor, partial curve, poor fit] | –
O=C(O)CCCCCN1C(=O)C(O)=C(C(=O)/C=C/c2ccccc2)C1c1ccccc1[N+](=O)[O-] (stereo not drawn) | – | inactive: 6.59%
CN(CC(=O)Nc1ccc(Cl)c(C(F)(F)F)c1)C(=O)Cc1n[nH]c(=O)c2ccccc12 | inconclusive: 35.5 µM [inhibitor, single point] | –

In another format: 3 of the compounds above
O=C(NCCCN1CCCC1=O)c1ccc(S(=O)(=O)Nc2cccc(C(F)(F)F)c2)cc1
  Potency: inconclusive: 15.8 µM [inhibitor, single point]
O=C(CN(c1ccc(F)cc1)S(=O)(=O)c1ccccc1)N1CCOCC1
  activity change, negative = inhibition: inactive: 7.68%
COC(=O)Cn1cc(C(=O)c2ccccc2F)c2ccccc21
  Potency: inconclusive: 1 µM [inhibitor, partial curve, poor fit]

Going on with the list:

SMILES | Potency | activity change, negative = inhibition
C[C@]12Cc3cn4c(nc3C=C1CCC1C2CC[C@@]2(C)[C@H]1CC[C@@]2(O)C#N)nc1ccccc14 (stereo partly drawn) | active: 5.17 µM | –
COc1cccc(NC(=O)c2ccc(-n3cccn3)nc2)c1 | inconclusive: 29.1 µM [activator, single point] | –
CCc1ccc(-c2nn(-c3ccccc3)cc2CSC(=N)N)cc1 | inconclusive: 22.4 µM [inhibitor, single point] | –
S=C(Nc1ccc(Cl)cc1)NN1CCOCC1 | – | inactive: 2.79%
COc1cccc(N=Nc2ccc(O)c3ncccc23)c1 | inconclusive: 7.94 µM [inhibitor, partial curve, poor fit] | –
COc1ccc(NC(=O)Nc2ccc(C)cc2OC(F)F)cc1OC | – | inactive: -23.5%
Cc1ccc(-c2ccc(/C=C3\C(=O)ON=C3c3ccccc3)o2)c([N+](=O)[O-])c1 | – | inactive: 2%
COC(=O)C(C)N(C(=O)c1ccc(C(=O)c2ccccc2)cc1)c1c(C)cccc1C (stereo not drawn) | inconclusive: 11.6 µM [inhibitor, partial curve, poor fit] | –
Cc1cc(C)c(NC(=O)CNC(=O)c2cc([N+](=O)[O-])ccc2N2CCOCC2)c(C)c1 | inconclusive: 35.5 µM [inhibitor, single point] | –
Cc1ccc(Cn2ccc(NC(=O)c3c(-c4ccccc4Cl)noc3C)n2)cc1 | inconclusive: 22.4 µM [inhibitor, single point] | –
COc1ccc(N2CC(C(=O)Nc3ccc(S(=O)(=O)N4CCCC4)cc3)CC2=O)cc1 (stereo not drawn) | inconclusive: 35.5 µM [inhibitor, partial curve, poor fit] | –
CCOC(=O)c1ccc(CN(Cc2ccc(Br)cc2)S(=O)(=O)c2cccc(Cl)c2C)cc1 | inconclusive: 35.5 µM [inhibitor, single point] | –
O=C(Nc1cc(Cl)ccc1N1CCOCC1)c1ccc(F)c(S(=O)(=O)N2CCOCC2)c1 | – | inactive: 22%
CCOC(=O)Nc1nc(-c2ccccc2)c(C(=O)c2ccccc2)s1 | inconclusive: 3.98 µM [inhibitor, partial curve, poor fit] | –
CCCCCCCCCCOC(=O)Cn1c(COc2ccc(OC)cc2)[n+](C)c2ccccc21 | inconclusive: 20 µM [inhibitor, partial curve, poor fit] | –
COc1ccccc1CNC(=O)CN1N=C(c2ccccc2)CCC1=O | – | inactive: -3.48% [at 46.1 µM]
O=C(N/N=C/c1cccc([N+](=O)[O-])c1)c1cccc2cc[nH]c12 | – | inactive: 5.54%
Cc1ccc2cc(C3CC(c4ccco4)=NN3S(=O)(=O)c3ccccc3)c(Cl)nc2c1 (stereo not drawn) | active: 16.4 µM | –
CCOc1ccc(N2CC(C(=O)NC(C)C)CC2=O)cc1 (stereo not drawn) | inconclusive: 0.447 µM [activator, partial curve, poor fit] | –
CN1CCN(CC(=O)N2c3ccccc3C(C)(c3ccc(Cl)cc3)CC2(C)C)CC1 (stereo not drawn) | inconclusive: 11.2 µM [inhibitor, partial curve, poor fit] | –
C=C1C[C@@]23CC[C@H]4[C@@](C)(CCC[C@@]4(C)C(=O)O)[C@@H]2CC[C@]1(O)C3 | – | inactive: 11%
